Measurements as given in the supplement of paper PMC10849652.
The other results are listed elsewhere or left out.

The chains behind the UniProt entries cited, without tags or fusion partners. Where a name states a change or a piece, a line headed by the entry shows the natural chain unless it says otherwise.
UniProt Q9Y5V3: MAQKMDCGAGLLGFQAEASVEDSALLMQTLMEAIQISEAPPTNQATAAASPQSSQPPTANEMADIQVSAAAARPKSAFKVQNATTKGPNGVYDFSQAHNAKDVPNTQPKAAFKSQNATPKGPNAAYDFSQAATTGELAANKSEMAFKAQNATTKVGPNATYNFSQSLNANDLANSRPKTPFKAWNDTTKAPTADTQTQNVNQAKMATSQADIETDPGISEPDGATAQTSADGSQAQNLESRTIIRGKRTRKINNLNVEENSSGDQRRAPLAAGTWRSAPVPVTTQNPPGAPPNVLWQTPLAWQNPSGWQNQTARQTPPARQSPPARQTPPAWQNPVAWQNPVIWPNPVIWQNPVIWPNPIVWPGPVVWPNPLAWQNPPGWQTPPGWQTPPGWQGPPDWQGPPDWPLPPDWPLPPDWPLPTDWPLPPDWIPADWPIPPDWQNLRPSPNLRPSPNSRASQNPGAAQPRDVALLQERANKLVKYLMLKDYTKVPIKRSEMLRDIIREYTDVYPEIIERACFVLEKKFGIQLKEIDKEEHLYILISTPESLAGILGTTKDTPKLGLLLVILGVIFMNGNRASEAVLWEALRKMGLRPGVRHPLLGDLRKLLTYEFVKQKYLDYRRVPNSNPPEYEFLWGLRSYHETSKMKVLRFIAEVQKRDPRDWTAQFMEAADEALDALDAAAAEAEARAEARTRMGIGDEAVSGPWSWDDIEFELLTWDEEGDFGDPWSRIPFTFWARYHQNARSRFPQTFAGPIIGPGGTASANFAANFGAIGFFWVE
UniProt Q5TCQ9: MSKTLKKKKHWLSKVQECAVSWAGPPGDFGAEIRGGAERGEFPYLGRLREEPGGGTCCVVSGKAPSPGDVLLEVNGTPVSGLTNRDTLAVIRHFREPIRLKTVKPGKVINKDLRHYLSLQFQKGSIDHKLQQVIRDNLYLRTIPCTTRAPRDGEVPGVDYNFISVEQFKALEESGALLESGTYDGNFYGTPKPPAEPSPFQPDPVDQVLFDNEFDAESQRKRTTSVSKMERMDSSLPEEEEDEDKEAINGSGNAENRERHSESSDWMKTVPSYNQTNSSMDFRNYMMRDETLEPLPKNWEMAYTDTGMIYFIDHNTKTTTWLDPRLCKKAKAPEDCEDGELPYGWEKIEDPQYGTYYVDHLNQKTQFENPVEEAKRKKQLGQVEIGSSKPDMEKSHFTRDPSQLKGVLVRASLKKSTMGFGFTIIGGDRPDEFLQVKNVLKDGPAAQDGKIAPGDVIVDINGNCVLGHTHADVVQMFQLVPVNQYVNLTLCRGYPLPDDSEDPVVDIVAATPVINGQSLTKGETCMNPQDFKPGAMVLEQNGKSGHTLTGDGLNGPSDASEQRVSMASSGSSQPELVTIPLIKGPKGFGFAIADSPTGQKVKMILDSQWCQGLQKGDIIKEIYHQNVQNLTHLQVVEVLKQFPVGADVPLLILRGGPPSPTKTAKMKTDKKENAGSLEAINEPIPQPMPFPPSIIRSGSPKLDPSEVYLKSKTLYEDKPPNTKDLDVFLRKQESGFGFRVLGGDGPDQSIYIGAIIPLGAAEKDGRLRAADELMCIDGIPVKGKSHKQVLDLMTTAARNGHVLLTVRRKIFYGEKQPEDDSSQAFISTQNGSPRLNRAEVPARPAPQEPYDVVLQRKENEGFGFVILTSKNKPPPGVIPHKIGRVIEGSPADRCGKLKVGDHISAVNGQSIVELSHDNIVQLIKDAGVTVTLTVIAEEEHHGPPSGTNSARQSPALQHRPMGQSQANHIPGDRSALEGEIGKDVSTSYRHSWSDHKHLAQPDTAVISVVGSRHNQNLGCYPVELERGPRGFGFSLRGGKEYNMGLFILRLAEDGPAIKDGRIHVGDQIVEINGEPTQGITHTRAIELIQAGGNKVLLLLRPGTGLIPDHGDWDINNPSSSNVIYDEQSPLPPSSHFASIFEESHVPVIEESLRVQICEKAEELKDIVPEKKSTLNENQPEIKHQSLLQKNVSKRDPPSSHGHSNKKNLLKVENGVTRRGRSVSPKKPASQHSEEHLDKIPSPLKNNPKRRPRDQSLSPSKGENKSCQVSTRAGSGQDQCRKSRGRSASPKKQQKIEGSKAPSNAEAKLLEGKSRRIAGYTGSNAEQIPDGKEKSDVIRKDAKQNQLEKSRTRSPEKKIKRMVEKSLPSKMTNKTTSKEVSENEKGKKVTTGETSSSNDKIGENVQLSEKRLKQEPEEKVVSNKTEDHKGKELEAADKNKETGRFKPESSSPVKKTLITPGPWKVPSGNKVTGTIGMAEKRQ
UniProt Q8WVR3: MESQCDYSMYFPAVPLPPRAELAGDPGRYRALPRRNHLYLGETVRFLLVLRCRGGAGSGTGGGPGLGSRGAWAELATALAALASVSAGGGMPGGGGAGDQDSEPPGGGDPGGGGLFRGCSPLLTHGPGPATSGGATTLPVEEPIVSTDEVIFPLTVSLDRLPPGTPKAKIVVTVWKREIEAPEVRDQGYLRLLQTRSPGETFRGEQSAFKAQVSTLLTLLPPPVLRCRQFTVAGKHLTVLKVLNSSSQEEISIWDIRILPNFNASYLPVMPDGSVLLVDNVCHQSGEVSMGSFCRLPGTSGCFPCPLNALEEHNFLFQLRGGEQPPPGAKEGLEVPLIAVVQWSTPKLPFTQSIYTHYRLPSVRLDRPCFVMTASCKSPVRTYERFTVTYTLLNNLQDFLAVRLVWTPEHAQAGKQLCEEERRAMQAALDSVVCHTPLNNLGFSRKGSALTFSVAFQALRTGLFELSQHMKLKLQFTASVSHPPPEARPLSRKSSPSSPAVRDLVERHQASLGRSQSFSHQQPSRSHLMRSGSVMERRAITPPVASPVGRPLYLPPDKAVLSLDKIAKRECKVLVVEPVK
UniProt Q9UI95, whole entry, looked up: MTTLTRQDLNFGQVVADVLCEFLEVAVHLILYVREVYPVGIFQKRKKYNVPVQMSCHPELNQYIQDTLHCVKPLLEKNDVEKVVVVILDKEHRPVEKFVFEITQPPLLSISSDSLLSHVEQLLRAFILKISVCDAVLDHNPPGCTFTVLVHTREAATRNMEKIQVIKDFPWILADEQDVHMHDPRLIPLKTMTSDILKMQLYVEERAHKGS
UniProt P62310: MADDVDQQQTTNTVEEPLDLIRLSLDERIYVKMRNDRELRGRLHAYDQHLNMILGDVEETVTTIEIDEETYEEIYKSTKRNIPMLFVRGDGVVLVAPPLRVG
UniProt Q15013: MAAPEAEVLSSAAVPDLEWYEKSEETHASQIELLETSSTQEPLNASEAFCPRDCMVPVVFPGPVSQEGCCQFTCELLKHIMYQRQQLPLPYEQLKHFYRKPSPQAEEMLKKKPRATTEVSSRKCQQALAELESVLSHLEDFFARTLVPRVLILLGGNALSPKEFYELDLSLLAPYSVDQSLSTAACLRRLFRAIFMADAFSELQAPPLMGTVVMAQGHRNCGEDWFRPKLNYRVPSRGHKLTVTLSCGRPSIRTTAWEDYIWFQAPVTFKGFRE
UniProt O95372: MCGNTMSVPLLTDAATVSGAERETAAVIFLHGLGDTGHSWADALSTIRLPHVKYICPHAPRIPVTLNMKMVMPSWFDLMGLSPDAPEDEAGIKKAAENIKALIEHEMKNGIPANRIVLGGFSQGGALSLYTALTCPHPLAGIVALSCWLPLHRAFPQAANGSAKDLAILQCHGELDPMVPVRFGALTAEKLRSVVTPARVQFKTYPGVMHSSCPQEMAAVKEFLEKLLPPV
UniProt Q8IVH8: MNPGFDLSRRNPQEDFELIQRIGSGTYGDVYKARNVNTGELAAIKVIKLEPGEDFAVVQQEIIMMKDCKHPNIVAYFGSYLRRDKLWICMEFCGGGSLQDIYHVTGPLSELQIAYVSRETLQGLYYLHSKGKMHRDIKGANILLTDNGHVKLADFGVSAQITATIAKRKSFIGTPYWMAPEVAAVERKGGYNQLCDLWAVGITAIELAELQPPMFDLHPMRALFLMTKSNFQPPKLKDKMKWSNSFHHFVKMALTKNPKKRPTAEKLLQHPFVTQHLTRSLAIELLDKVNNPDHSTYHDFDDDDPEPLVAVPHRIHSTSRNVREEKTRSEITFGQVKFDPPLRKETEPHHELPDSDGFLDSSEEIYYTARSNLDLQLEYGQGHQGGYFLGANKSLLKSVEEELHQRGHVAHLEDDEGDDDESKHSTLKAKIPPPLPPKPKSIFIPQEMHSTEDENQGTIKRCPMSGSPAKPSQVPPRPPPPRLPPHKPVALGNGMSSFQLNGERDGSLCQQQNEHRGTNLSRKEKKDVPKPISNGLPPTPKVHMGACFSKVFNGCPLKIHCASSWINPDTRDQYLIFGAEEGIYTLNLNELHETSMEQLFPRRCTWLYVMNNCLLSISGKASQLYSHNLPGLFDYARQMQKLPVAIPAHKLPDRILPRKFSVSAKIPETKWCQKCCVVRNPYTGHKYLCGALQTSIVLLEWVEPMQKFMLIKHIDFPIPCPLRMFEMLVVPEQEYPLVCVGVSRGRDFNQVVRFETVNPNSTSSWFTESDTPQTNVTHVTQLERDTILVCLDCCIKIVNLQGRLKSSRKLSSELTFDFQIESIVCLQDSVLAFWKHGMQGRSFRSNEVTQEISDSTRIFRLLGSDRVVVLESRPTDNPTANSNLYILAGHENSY
UniProt O15525: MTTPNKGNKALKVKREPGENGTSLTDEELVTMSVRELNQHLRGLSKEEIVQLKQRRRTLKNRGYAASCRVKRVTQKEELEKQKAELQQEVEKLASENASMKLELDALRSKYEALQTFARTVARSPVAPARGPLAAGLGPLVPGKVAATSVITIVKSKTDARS
UniProt Q99759: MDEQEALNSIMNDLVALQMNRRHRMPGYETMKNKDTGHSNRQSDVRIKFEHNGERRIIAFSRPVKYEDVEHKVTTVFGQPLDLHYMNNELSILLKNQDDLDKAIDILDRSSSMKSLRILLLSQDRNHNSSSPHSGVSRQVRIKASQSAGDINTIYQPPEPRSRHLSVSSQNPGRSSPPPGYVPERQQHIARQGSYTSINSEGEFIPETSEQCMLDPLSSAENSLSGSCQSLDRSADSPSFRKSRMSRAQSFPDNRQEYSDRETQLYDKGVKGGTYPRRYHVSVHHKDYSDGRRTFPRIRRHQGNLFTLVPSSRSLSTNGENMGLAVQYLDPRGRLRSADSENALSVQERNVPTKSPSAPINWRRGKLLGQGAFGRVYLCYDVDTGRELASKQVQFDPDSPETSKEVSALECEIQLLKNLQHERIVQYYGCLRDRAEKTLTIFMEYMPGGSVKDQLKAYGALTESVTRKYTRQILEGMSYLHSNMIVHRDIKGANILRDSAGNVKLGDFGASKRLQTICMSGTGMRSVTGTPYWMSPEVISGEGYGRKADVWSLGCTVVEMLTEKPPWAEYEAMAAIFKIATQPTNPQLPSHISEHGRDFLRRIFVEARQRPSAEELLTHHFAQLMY
UniProt Q13164: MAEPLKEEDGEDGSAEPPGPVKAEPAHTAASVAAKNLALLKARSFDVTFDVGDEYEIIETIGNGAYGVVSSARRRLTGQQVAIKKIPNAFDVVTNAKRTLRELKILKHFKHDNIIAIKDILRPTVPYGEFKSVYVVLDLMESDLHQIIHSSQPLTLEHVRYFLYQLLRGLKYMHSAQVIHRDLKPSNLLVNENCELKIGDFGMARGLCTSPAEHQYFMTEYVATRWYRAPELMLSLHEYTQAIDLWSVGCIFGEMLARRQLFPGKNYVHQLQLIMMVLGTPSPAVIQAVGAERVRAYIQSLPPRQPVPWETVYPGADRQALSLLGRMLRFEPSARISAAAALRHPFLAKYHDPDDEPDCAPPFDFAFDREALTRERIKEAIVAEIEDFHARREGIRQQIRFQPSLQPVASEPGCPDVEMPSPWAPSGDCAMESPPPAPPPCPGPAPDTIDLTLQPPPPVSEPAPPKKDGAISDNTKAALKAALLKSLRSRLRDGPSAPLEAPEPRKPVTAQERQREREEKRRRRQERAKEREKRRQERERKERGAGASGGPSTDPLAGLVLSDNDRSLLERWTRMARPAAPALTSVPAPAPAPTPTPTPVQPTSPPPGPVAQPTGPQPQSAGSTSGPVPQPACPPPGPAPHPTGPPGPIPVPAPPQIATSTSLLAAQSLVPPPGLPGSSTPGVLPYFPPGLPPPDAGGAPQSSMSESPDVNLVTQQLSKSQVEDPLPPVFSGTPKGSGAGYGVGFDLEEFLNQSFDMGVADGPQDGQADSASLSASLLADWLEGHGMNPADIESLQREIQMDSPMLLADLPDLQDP
UniProt Q9Y4Y9: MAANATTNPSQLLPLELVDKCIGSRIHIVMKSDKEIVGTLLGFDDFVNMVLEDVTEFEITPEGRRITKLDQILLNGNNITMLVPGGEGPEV

What was measured:
Test in all cases: log2 fold change, soluble protein after heating vs DMSO (PISA); higher = thermal stabilisation; K562 cells, 10 uM, 30 min; active = over 0.2 and 3.5 SD of the protein, either way, in both replicates (recomputed)
[1] = compound: NC(=O)Nc1cc(-c2cccc(F)c2)sc1C(=O)N[C@H]1CCCNC1
How it was run: (§1)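 K562 cells (2×10^6 cells/mL) were treated with 10 μM compound for 30 min, and aliquots were heated for 3 min over 48°C-58°C. Pooled aliquots were extracted in PBS with 0.5% NP-40 at 4°C, and the supernatant after 21,000xg for 90 min was measured by TMTpro 16plex LC-MS/MS with channel sums equalised. Reported thermal stability, relative to control samples and from duplicates, is a log2 fold change.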

[2] = compound: NC(=O)c1cnc(N[C@@H]2CCCC[C@@H]2N)nc1Nc1cccc(-n2nccn2)c1
How it was run: as §1

[3] = compound: NCC(=O)Nc1ccc(-n2nc(C(F)(F)F)cc2-c2ccc3c(ccc4ccccc43)c2)cc1
How it was run: as §1

entinostat = compound: Nc1ccccc1NC(=O)c1ccc(CNC(=O)OCc2cccnc2)cc1 [entinostat]
How it was run: as §1

[4] = compound: O=C1NC(=O)C(c2cnc3ccccn23)=C1c1cn2c3c(cc(F)cc13)CN(C(=O)N1CCCCC1)CC2
How it was run: as §1

[5] = compound: NC1(c2ccc(-c3nc4ccn5c(=O)[nH]nc5c4cc3-c3ccccc3)cc2)CCC1
How it was run: as §1

citarinostat = compound: O=C(CCCCCCNC(=O)c1cnc(N(c2ccccc2)c2ccccc2Cl)nc1)NO [citarinostat]
How it was run: as §1

silmitasertib = compound: O=C(O)c1ccc2c(c1)nc(Nc1cccc(Cl)c1)c1ccncc12 [silmitasertib]
How it was run: as §1

[6] = compound: c1cc(OCCN2CCCCC2)cc(-c2n[nH]c3ccc(-c4nnc[nH]4)cc23)c1
How it was run: as §1

vorinostat = compound: O=C(CCCCCCC(=O)Nc1ccccc1)NO [vorinostat]
How it was run: as §1

Measured: log2 fold change

MAGED1 isoform 2 (UniProt Q9Y5V3)
inactive: [1] 0.098 | [2] -0.029 | [3] -0.258 | entinostat 0 | [4] 0.262

MAGI3 isoform 1 (UniProt Q5TCQ9)
inactive: [1] -0.04 | [2] -0.219 | [5] -0.154 | [3] -0.024 | entinostat -0.065 | citarinostat 0 | silmitasertib -0.178 | [4] 0 | [6] -0.026

MAP11 (UniProt Q8WVR3)
inactive: [1] -0.039 | [5] -0.169 | [3] 0.024 | entinostat 0.004 | vorinostat 0.135 | citarinostat -0.018 | silmitasertib 0 | [4] 0.04 | [6] -0.061

LYZ (UniProt P61626)
inactive: [1] 1.53 | [2] 0.418 | [5] 0.178 | [3] 0.022 | entinostat 0.039 | citarinostat 0.157 | silmitasertib -0.094 | [4] -0.216 | [6] 0.577

MAD2L2 (UniProt Q9UI95)
inactive: [1] 0.148 | [2] -0.032 | entinostat 0.044 | vorinostat 0.168 | citarinostat 0.083 | [4] -0.027 | [6] -0.165

LSM3 (UniProt P62310)
inactive: [1] 0.006 | [2] 0.017 | [5] -0.058 | [3] 0.117 | entinostat -0.019 | vorinostat -0.095 | citarinostat 0.048 | silmitasertib -0.059 | [4] -0.075 | [6] -0.003

MAD2L1BP isoform 3 (UniProt Q15013)
inactive: [1] 0.005 | [2] 0.021 | [5] -0.047 | [3] 0.001 | entinostat -0.006 | citarinostat 0.056 | silmitasertib -0.054 | [4] -0.032 | [6] -0.04

MAP3K20 isoform 2 (UniProt Q9NYL2)
inactive: [1] 0.09 | [2] -0.041 | [5] 0.099 | entinostat 0.056 | silmitasertib 0.009 | [4] -0.008

LYPLA2 (UniProt O95372)
inactive: [1] 0.02 | [2] 0.043 | [5] -0.031 | [3] 0.09 | entinostat 0.114 | vorinostat -0.065 | citarinostat 0.018 | silmitasertib -0.048 | [4] 0 | [6] 0.036

MAP4K3 (UniProt Q8IVH8)
inactive: [1] 0.356 | [3] -0.38 | entinostat 0.161 | citarinostat -0.031 | [6] -0.128

MAFG (UniProt O15525)
inactive: [2] 0.003 | [3] -0.009 | vorinostat -0.136 | [4] -0.13

MAP3K3 isoform 2 (UniProt Q99759)
inactive: [1] 0.041 | [5] -0.4 | [3] -0.159 | entinostat 0.007 | vorinostat -0.02 | citarinostat -0.021 | silmitasertib -0.106 | [4] 0.171 | [6] 0.076

MAPK7 (UniProt Q13164)
inactive: [2] -0.25 | vorinostat -0.069 | [4] 0

MAN2B1 (UniProt M0QYZ1)
inactive: [2] -0.04 | [4] -0.356

LSM14A, A0A140TA76
inactive: [2] 0.236 | [5] 0.025 | [3] 0.069 | silmitasertib -0.094

LSM5 (UniProt Q9Y4Y9)
inactive: [1] 0.14 | [5] -0.067 | entinostat 0.004 | vorinostat -0.187 | citarinostat 0.028 | silmitasertib -0.035 | [4] -0.027 | [6] 0.049
